Measured values as given in patent US5786195.

Tested on: BssHII multi-specific methylase (bssHIIM1) (Bacillus stearothermophilus H3)
Assay: activity in cells
Settings: protein in cells, only the site is given

CGGCCG (double strand) [EagI site]
activity on this sequence (partial modification, partially resistant to EagI): less active

ACGCGT (double strand) [MluI site]
activity on this sequence (partial modification, partially resistant to MluI): less active

GCGCGC (double strand) [BssHII site]
activity on this sequence (methylation in E. coli, plasmid resistant to BssHII digestion): active

For at least one entry, the source does not settle the construct or the ends of the probe. A weaker result is weaker than the reference pair of the same experiment.
